Assay results taken from patent US20200392203A1 (YEDA RESEARCH AND DEVELOPMENT, published 2020).
Results are given in words; binding and its absence hold for the method and conditions named. Binding seen in cells or lysates may run through a third protein. Some entries that bind do so weakly or less than the wild type.

Molecular target: GP1MACV (GP1 domain of Machupo virus, co-expressed with sAD for crystallography) (Machupo virus (MACV)) (UniProt Q6IUF7)
Test: co-expression, co-purification and crystal structure at 2.7 Å

B1: soluble apical domain (sAD) of Neotoma albigula (White-throated woodrat) TfR1 (receptor)
chain: GSKIQVKCSAPNSVTITNASGGLYLVEYPEGYVAYSKATEVTGKLVHANFGTKKDFEDLDYAVNGSIVIVRAGKITIAEKVANAQSFNAIGVLIYKDRTKYPISRADEPLQGHSGLPSIPVQTISREAAEKLFQNMERDCPRSWNTDSSCKLELLQNRNVKLTVNNCLKE
- binding: binds
